From article PMC8894350, “Mechanism of cooperative N-glycan processing by the multi-modular endoglycosidase EndoE” (Nature Communications, 2022)
No constants are given. Whether binding was seen depends on the method and setting.

Target: EndoE (residues 56-837) (Enterococcus faecalis) (UniProt Q6U890)
Assay: SEC-SAXS; in-line size-exclusion chromatography SAXS, Shodex KW403-4F column, 50 uL of protein at 10 mg mL^-1 injected, 50 mM Tris-HCl pH 7.5, 100 mM NaCl, 2% v/v glycerol; both purified

B1: EndoE (residues 56-837) (enzyme, UniProt Q6U890 56-837)
chain: NEPTQEKHFMVYYRAWRDKTMQGVNTTLPDENWLTMHDIPYGIDIVNVFSYVPKGQEALAQPFYDTLKNEYAPALHARGVRLVRGIDYSELLKVPYAGTTPTEAEFDAYAKELLTKFVDDLGIDGLDIDMETRPSEKDIVLSNGVIRALSKYIGPKSGTDRPFLYDTNAEYLPPLQDVSDCFDFLAYQQYGSDDQRTQRALNNLSPVLNGERFVPGLTFPEEQDRNRWYDTKEPYMESNMYKVARYSYENNLGGMFLYALDRDGRTYNEDDLNQIKPSNLLWTKTAIAESKGVSLAEMKAAAQHYLKRISYANTDLEAQNKAAEAVTQATTLYDVNKAILGGDYGQGLSNTYDAELEKGLLAIDLTTLYRALDQAVAAIEKAESYTPETIQALQTTKESVATELAGKTYTAAQVTTWQTEVQTALDNLKEKQTQPLKSVFSIDAGRKYFSVEQLEELVAKASQNGYTDVQLILGNDGLRFILDDMSVNVNGKKYNHNRVSKAIQRGNNAYYNDPNGNALTQKEMDRLLAFAKARNINIIPVINSPGHMDALLVAMEKLAIKNPAFDGSKRPVDLGNQKAVNFTKAIISKYVAYFSAHSEIFNFGGDEYANDVDTGGWAKLQSSGRYKDFVAYANDLAKIIKDAGMQPMSFNDGIYYNSDDSFGTFDPEIIISYWTAGWSGYDVAKPEYFVQKGHKIFNTNDAWYWVAGNVDSGIYQYDDALANMSKKAFTDVPAGSPNLPIIGSIQCVWYDDPRRDYDFERIYTLMDTFSENYREYMVVKNH
binding: no binding (tested: 10 mg mL^-1 injected)
